Publication PMC10808187
No constants are given. Whether binding was seen depends on the method and setting. In cells and extracts the contact can be indirect. Some binding calls cover weakened binding; strength is not graded here. For part of these data: Sequences can lack the tags named with a protein.

Sequences of proteins named here, by UniProt entry; tags and fusion partners are left off.
UniProt Q8R4B8: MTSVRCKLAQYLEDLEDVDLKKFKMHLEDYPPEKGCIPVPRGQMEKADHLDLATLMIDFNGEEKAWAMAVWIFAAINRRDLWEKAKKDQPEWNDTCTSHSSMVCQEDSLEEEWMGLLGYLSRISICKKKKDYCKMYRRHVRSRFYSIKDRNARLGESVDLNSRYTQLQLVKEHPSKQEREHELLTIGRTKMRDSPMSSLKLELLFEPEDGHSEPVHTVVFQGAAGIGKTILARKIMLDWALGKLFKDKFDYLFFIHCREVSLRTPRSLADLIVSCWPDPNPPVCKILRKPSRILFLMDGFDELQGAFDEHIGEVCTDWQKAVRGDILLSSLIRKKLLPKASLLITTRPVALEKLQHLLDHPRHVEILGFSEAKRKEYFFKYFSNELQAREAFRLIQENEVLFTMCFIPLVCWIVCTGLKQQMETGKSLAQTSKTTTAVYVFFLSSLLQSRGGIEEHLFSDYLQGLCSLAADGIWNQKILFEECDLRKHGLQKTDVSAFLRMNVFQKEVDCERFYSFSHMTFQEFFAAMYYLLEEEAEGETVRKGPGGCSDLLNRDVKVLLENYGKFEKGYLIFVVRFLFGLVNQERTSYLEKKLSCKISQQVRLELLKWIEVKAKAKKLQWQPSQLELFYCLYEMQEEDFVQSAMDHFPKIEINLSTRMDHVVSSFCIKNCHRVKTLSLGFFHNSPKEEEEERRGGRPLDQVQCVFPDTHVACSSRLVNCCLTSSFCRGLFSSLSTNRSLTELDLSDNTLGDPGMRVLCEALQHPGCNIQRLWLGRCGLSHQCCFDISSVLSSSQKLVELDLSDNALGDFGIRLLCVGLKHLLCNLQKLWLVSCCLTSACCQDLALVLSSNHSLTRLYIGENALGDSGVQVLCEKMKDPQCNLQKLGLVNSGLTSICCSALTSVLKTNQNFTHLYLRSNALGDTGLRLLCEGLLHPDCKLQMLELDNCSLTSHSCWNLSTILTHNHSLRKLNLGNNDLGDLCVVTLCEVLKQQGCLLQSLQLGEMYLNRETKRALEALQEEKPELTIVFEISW

Assays:
[1] = target: T1, GST-HECTD3-DOC (human) (UniProt Q5T447); test: pull-down; transfected HEK293T cells lysed in IP lysis buffer (50 mM Tris-HCl, 5 mM EDTA, 150 mM NaCl, 0.5% Nonidet-P40, 10% glycerol, pH 7.4); GST beads at 4 °C overnight, washed 5 times, Western blot
T1 sequence: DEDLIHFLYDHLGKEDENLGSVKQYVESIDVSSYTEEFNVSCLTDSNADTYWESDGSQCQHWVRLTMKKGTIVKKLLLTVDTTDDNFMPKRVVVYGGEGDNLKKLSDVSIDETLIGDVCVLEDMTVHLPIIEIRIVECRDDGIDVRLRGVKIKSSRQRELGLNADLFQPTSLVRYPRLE

[2] = target: T2, 3×Flag-tagged HECTD3 (human) (UniProt Q5T447); test: co-IP; transfected HEK293T cells lysed in IP lysis buffer (50 mM Tris-HCl, 5 mM EDTA, 150 mM NaCl, 0.5% Nonidet-P40, 10% glycerol, pH 7.4); Flag-M2 beads at 4 °C overnight, washed 5 times, Western blot; in some panels 2.5 mM ATP, HECTD3 siRNA or co-expressed HECTD3 constructs
T2 sequence: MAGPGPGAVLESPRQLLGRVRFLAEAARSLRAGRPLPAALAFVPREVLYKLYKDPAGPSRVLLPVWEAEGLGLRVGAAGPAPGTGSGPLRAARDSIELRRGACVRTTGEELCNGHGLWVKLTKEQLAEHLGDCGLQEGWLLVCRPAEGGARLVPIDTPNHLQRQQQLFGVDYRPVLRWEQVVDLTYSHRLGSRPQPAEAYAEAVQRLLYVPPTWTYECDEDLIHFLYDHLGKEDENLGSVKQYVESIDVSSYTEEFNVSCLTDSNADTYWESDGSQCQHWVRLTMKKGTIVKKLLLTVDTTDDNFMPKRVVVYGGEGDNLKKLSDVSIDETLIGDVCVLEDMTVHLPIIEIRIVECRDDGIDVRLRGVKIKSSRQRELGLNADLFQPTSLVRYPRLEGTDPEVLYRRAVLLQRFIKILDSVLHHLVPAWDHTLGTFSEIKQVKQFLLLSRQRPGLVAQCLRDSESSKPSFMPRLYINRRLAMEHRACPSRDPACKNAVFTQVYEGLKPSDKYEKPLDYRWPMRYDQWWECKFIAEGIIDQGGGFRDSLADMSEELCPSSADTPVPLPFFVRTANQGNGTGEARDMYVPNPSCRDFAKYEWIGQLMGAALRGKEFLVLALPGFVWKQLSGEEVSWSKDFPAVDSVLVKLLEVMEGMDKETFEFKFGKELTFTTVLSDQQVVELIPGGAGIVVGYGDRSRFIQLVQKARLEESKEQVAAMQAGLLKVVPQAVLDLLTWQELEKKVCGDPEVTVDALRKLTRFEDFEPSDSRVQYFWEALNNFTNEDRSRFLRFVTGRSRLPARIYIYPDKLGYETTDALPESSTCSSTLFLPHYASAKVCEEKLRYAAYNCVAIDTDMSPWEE

[3] = target: 3×Flag-tagged NLRP3 (mouse) (UniProt Q8R4B8); test: as above
[4] = target: GST-tagged NLRP3 (mouse) (UniProt Q8R4B8); test: pull-down; transfected HEK293T cells lysed in IP lysis buffer (50 mM Tris-HCl, 5 mM EDTA, 150 mM NaCl, 0.5% Nonidet-P40, 10% glycerol, pH 7.4); GST beads at 4 °C overnight, washed 5 times, Western blot
[5] = target: endogenous NLRP3 (mouse (endogenous in BMDMs)) (UniProt Q8R4B8); test: co-IP; lysates of mouse BMDMs (LPS plus ATP; Hectd3+/+, Hectd3-/-, WT or Hectd3 KI) incubated with 2 μg/mL anti-NLRP3 antibody or isotype-matched IgG at 4 °C overnight, protein A/G beads 1 h, washed 5 times with IP lysis buffer, Western blot

With “3×Flag-tagged NLRP3 (from UniProt Q8R4B8 1-1033)” the binding [1] was “binds”.

With “GST-tagged NLRP3 (from UniProt Q8R4B8 1-1033)” the binding [2] was “binds”.

B1: HECTD3 (enzyme, UniProt Q5T447 1-861)
chain: MAGPGPGAVLESPRQLLGRVRFLAEAARSLRAGRPLPAALAFVPREVLYKLYKDPAGPSRVLLPVWEAEGLGLRVGAAGPAPGTGSGPLRAARDSIELRRGACVRTTGEELCNGHGLWVKLTKEQLAEHLGDCGLQEGWLLVCRPAEGGARLVPIDTPNHLQRQQQLFGVDYRPVLRWEQVVDLTYSHRLGSRPQPAEAYAEAVQRLLYVPPTWTYECDEDLIHFLYDHLGKEDENLGSVKQYVESIDVSSYTEEFNVSCLTDSNADTYWESDGSQCQHWVRLTMKKGTIVKKLLLTVDTTDDNFMPKRVVVYGGEGDNLKKLSDVSIDETLIGDVCVLEDMTVHLPIIEIRIVECRDDGIDVRLRGVKIKSSRQRELGLNADLFQPTSLVRYPRLEGTDPEVLYRRAVLLQRFIKILDSVLHHLVPAWDHTLGTFSEIKQVKQFLLLSRQRPGLVAQCLRDSESSKPSFMPRLYINRRLAMEHRACPSRDPACKNAVFTQVYEGLKPSDKYEKPLDYRWPMRYDQWWECKFIAEGIIDQGGGFRDSLADMSEELCPSSADTPVPLPFFVRTANQGNGTGEARDMYVPNPSCRDFAKYEWIGQLMGAALRGKEFLVLALPGFVWKQLSGEEVSWSKDFPAVDSVLVKLLEVMEGMDKETFEFKFGKELTFTTVLSDQQVVELIPGGAGIVVGYGDRSRFIQLVQKARLEESKEQVAAMQAGLLKVVPQAVLDLLTWQELEKKVCGDPEVTVDALRKLTRFEDFEPSDSRVQYFWEALNNFTNEDRSRFLRFVTGRSRLPARIYIYPDKLGYETTDALPESSTCSSTLFLPHYASAKVCEEKLRYAAYNCVAIDTDMSPWEE
B1 was tested, and the binding [3] was “binds” and the binding [4] was “binds”.

B2: endogenous HECTD3 (enzyme, UniProt Q3U487 1-861)
chain: MAGPGPGAALESPRQLLGRVRFLAEAARSLRAGLPLPAALAFVPREVLYKLYKDPAGPSRVLLPVWEAEGLGLRVGAVGAAPGTGSGPLRAARDSIELRRGACVRTTGEELCNGHGLWVKLTKEQLAEHLSDCSLDEGWLLVCRPAEGGARLVPIDTPDHLQRQQQLFGVDYRPVLRWEQVVDLTYSHRLGSRPQPAEAYTEAIQRLLYVPPTWTYECDEDLIHFLYDHLGKEDENLGSVKQYVESIDVSSYTEEFNVSCLTDSNADTYWESDGSQCQHWVRLTMKKGTIVKKLLLTVDTTDDNFMPKRVVVYGGEGDNLKKLSDVNIDETLIGDVCVLEDMTVHLPIIEIRIVECRDDGIDVRLRGVKIKSSRQRELGLNADLFQPASLVRYPRLEGTDPEVLYRRAVLLQRFIKILDSVLHHLVPAWDHTLGTFSEIKQVKQFLLLSRQRPSLVAQCLRDSESSKPSFMPRLYINRRLAMEHRACPSRDPACKNAVFTQVYEGLKPSDKYEKPLDYRWPMRYDQWWECKFIAEGIIDQGGGFRDSLADMSEELCPSSADTPVPLPFFVRTANQGNGTGEARDMYVPNPSCRDFAKYEWIGQLMGAALRGKEFLVLALPGFVWKQLSGEEVSWSKDFPAVDSVLVKLLEVMEGVDKETFEFKFGKELTFTTVLSDQQVVELIPGGTGIVVEYEDRSRFIQLVRKARLEESKEQVAAMQAGLLKVVPQAVLDLLTWQELEKKVCGDPEVTVDALRKLTRFEDFEPSDTRVQYFWEALNNFTNEDRSRFLRFVTGRSRLPARIYIYPDKLGYETTDALPESSTCSSTLFLPHYASAKVCEEKLRYAAYNCVAIDTDMSPWEE
With B2 the binding [5] was “binds”.

B3: HECTD3C823A (enzyme, UniProt Q5T447 1-861)
chain: MAGPGPGAVLESPRQLLGRVRFLAEAARSLRAGRPLPAALAFVPREVLYKLYKDPAGPSRVLLPVWEAEGLGLRVGAAGPAPGTGSGPLRAARDSIELRRGACVRTTGEELCNGHGLWVKLTKEQLAEHLGDCGLQEGWLLVCRPAEGGARLVPIDTPNHLQRQQQLFGVDYRPVLRWEQVVDLTYSHRLGSRPQPAEAYAEAVQRLLYVPPTWTYECDEDLIHFLYDHLGKEDENLGSVKQYVESIDVSSYTEEFNVSCLTDSNADTYWESDGSQCQHWVRLTMKKGTIVKKLLLTVDTTDDNFMPKRVVVYGGEGDNLKKLSDVSIDETLIGDVCVLEDMTVHLPIIEIRIVECRDDGIDVRLRGVKIKSSRQRELGLNADLFQPTSLVRYPRLEGTDPEVLYRRAVLLQRFIKILDSVLHHLVPAWDHTLGTFSEIKQVKQFLLLSRQRPGLVAQCLRDSESSKPSFMPRLYINRRLAMEHRACPSRDPACKNAVFTQVYEGLKPSDKYEKPLDYRWPMRYDQWWECKFIAEGIIDQGGGFRDSLADMSEELCPSSADTPVPLPFFVRTANQGNGTGEARDMYVPNPSCRDFAKYEWIGQLMGAALRGKEFLVLALPGFVWKQLSGEEVSWSKDFPAVDSVLVKLLEVMEGMDKETFEFKFGKELTFTTVLSDQQVVELIPGGAGIVVGYGDRSRFIQLVQKARLEESKEQVAAMQAGLLKVVPQAVLDLLTWQELEKKVCGDPEVTVDALRKLTRFEDFEPSDSRVQYFWEALNNFTNEDRSRFLRFVTGRSRLPARIYIYPDKLGYETTDALPESSTASSTLFLPHYASAKVCEEKLRYAAYNCVAIDTDMSPWEE
In the case of B3, the binding [3] is reported as “binds”.
